# Measurements published in the supplement of paper PMC8728848.
# The other results are listed elsewhere or left out.
# B1: PX15642A-pgi-501-20-501 (Parabacteroides gingivalis) (protein)
# chain: CELDRDPEGKDFQQPYTSFVQTKQNRDGLYALLRNTENPRMHFYQELQSDMYCTTITDGNSLAPFVNWDLGILNDHGRADEDEVSGIAGYYFVYNRLNQQANAFVNNTEAALQNQVYKNSTEIANAKSFLAEGKVLQALAIWRLMDRFSFHESVTEVNSGAKDLGVILLKEYNPGYIGPRATKAQCYDYILSRLSEAIEVLPENRESVLYVSRDYAYALRARIYLALGEYGKAAADAKMVVDKYPLIGAADASEFENIYRSDANNPEIIFRGFASATLGSFTATTLNGAAPAGKDIKYNPSAVPFQWVVDLYENEDFRKSVYIAKVVKKDKGYLVNKFLEDKAYRDVQDKPNLKVGARYFSVAEVYLILVESALQTGDTPTAEKYLKALSKARGAEVSVVNMEALQAERTRELIGEGSRLRDMVRWSIPNNHDAFETQPGLEGFANTTPLKAQAPVGFYAYTWEFPQRDRQTNPQLIKNWPI
# Assays:
# Experiment in all cases: glycan array binding signal (z-score within array); higher = stronger binding
# Settings in all cases: glycan notation: IUPAC condensed, linker removed
# [1] = target: Man(a1-2)Man(a1-3)[Man(a1-2)Man(a1-6)]Man(a1-6)[Man(a1-2)Man(a1-2)Man(a1-3)]Man
# Procedure, shortened: (§1)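 Glycan array data were curated from 3228 arrays in the Consortium for Functional Glycomics database and kept only where the protein sequence was available. Glycan names were converted to IUPAC-condensed notation, and columns mapping to the same glycan were averaged. The binding signal is a within-array Z-score, averaged across arrays of the same protein sequence at different concentrations or buffers and across linkers. Negative Z-scores can be read as non-binding.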
# [2] = target: Man(a1-2)Man(a1-3)[Man(a1-2)Man(a1-6)]Man(a1-6)[Man(a1-2)Man(a1-2)Man(a1-3)]Man(b1-4)GlcNAc(b1-4)GlcNAc
# Procedure, shortened: as §1
# [3] = target: Man(a1-2)Man(a1-3)[Man(a1-6)]Man(a1-6)[Man(a1-2)Man(a1-3)]Man(b1-4)GlcNAc(b1-4)GlcNAc
# Procedure, shortened: as §1
# [4] = target: Man(a1-2)Man(a1-6)[Man(a1-3)]Man(a1-6)[Man(a1-2)Man(a1-2)Man(a1-3)]Man
# Procedure, shortened: as §1
# [5] = target: Man(a1-2)Man(a1-6)[Man(a1-3)]Man(a1-6)[Man(a1-2)Man(a1-2)Man(a1-3)]Man(b1-4)GlcNAc(b1-4)GlcNAc
# Procedure, shortened: as §1
# Man(a1-3)[Man(a1-6)]Man = target: Man(a1-3)[Man(a1-6)]Man
# Procedure, shortened: as §1
# [6] = target: Man(a1-3)[Man(a1-6)]Man(a1-6)[Man(a1-2)Man(a1-3)]Man(b1-4)GlcNAc(b1-4)GlcNAc
# Procedure, shortened: as §1
# [7] = target: Man(a1-3)[Man(a1-6)]Man(a1-6)[Man(a1-3)]Man
# Procedure, shortened: as §1
# [8] = target: Man(a1-3)[Man(a1-6)]Man(a1-6)[Man(a1-3)]Man(b1-4)GlcNAc(b1-4)GlcNAc
# Procedure, shortened: as §1
# [9] = target: Man(a1-3)[Man(a1-6)]Man(b1-4)GlcNAc(b1-4)GlcNAc
# Procedure, shortened: as §1
# [10] = target: Man(a1-3)[Man(a1-6)]Man(b1-4)GlcNAc(b1-4)[Fuc(a1-6)]GlcNAc
# Procedure, shortened: as §1
# Man(a1-6)Man = target: Man(a1-6)Man
# Procedure, shortened: as §1
# Man(b1-4)GlcNAc = target: Man(b1-4)GlcNAc
# Procedure, shortened: as §1
# MurNAc(b1-4)GlcNAc = target: MurNAc(b1-4)GlcNAc
# Procedure, shortened: as §1
# Neu5Ac(a2-3)Gal = target: Neu5Ac(a2-3)Gal
# Procedure, shortened: as §1
# [11] = target: Neu5Ac(a2-3)Gal(b1-3)GalNAc
# Procedure, shortened: as §1
# [12] = target: Neu5Ac(a2-3)Gal(b1-3)GalNAc(b1-3)Gal(a1-4)Gal(b1-4)Glc
# Procedure, shortened: as §1
# [13] = target: Neu5Ac(a2-3)Gal(b1-3)GalNAc(b1-4)[Neu5Ac(a2-3)]Gal(b1-4)Glc
# Procedure, shortened: as §1
# [14] = target: Neu5Ac(a2-3)Gal(b1-3)GalNAc(b1-4)[Neu5Ac(a2-8)Neu5Ac(a2-3)]Gal(b1-4)Glc
# Procedure, shortened: as §1
# [15] = target: Neu5Ac(a2-3)Gal(b1-3)GalNAc6S
# Procedure, shortened: as §1
# [16] = target: Neu5Ac(a2-3)Gal(b1-3)GlcNAc
# Procedure, shortened: as §1
# [17] = target: Neu5Ac(a2-3)Gal(b1-3)GlcNAc(b1-2)Man
# Procedure, shortened: as §1
# [18] = target: Neu5Ac(a2-3)Gal(b1-3)GlcNAc(b1-2)Man(a1-3)[GlcNAc(b1-4)][Neu5Ac(a2-3)Gal(b1-3)GlcNAc(b1-2)Man(a1-6)]Man(b1-4)GlcNAc(b1-4)GlcNAc
# Procedure, shortened: as §1
# [19] = target: Neu5Ac(a2-3)Gal(b1-3)GlcNAc(b1-2)Man(a1-3)[Neu5Ac(a2-3)Gal(b1-3)GlcNAc(b1-2)Man(a1-6)]Man(b1-4)GlcNAc(b1-4)GlcNAc
# Procedure, shortened: as §1
# [20] = target: Neu5Ac(a2-3)Gal(b1-3)GlcNAc(b1-3)Gal(b1-3)GlcNAc
# Procedure, shortened: as §1
# [21] = target: Neu5Ac(a2-3)Gal(b1-3)GlcNAc(b1-3)Gal(b1-4)GlcNAc
# Procedure, shortened: as §1
# [22] = target: Neu5Ac(a2-3)Gal(b1-3)GlcNAc(b1-3)GalNAc
# Procedure, shortened: as §1
# [23] = target: Neu5Ac(a2-3)Gal(b1-3)GlcNAc(b1-4)Gal(b1-4)Glc
# Procedure, shortened: as §1
# [24] = target: Neu5Ac(a2-3)Gal(b1-3)GlcNAc(b1-6)GalNAc
# Procedure, shortened: as §1
# [25] = target: Neu5Ac(a2-3)Gal(b1-3)GlcNAc6S
# Procedure, shortened: as §1
# [26] = target: Neu5Ac(a2-3)Gal(b1-3)[Fuc(a1-4)]GlcNAc
# Procedure, shortened: as §1
# [27] = target: Neu5Ac(a2-3)Gal(b1-3)[Fuc(a1-4)]GlcNAc(b1-3)Gal(b1-3)[Fuc(a1-4)]GlcNAc
# Procedure, shortened: as §1
# [28] = target: Neu5Ac(a2-3)Gal(b1-3)[Fuc(a1-4)]GlcNAc(b1-3)Gal(b1-4)[Fuc(a1-3)]GlcNAc
# Procedure, shortened: as §1
# [29] = target: Neu5Ac(a2-3)Gal(b1-3)[GlcNAc(b1-6)]GalNAc
# Procedure, shortened: as §1
# [30] = target: Neu5Ac(a2-3)Gal(b1-3)[Neu5Ac(a2-6)]GalNAc
# Procedure, shortened: as §1
# [31] = target: Neu5Ac(a2-3)Gal(b1-3)[Neu5Ac(a2-6)]GlcNAc(b1-3)[Fuc(a1-3)[Gal(b1-4)]GlcNAc(b1-6)]Gal(b1-4)Glc
# Procedure, shortened: as §1
# [32] = target: Neu5Ac(a2-3)Gal(b1-3)]Neu5Ac(a2-3)Gal(b1-4)]GlcNAc
# Procedure, shortened: as §1
# Neu5Ac(a2-3)Gal(b1-4)Glc = target: Neu5Ac(a2-3)Gal(b1-4)Glc
# Procedure, shortened: as §1
# [33] = target: Neu5Ac(a2-3)Gal(b1-4)GlcNAc
# Procedure, shortened: as §1
# [34] = target: Neu5Ac(a2-3)Gal(b1-4)GlcNAc(b1-2)Man
# Procedure, shortened: as §1
# [35] = target: Neu5Ac(a2-3)Gal(b1-4)GlcNAc(b1-2)Man(a1-3)[GlcNAc(b1-4)][Neu5Ac(a2-3)Gal(b1-4)GlcNAc(b1-2)Man(a1-6)]Man(b1-4)GlcNAc(b1-4)GlcNAc
# Procedure, shortened: as §1
# [36] = target: Neu5Ac(a2-3)Gal(b1-4)GlcNAc(b1-2)Man(a1-3)[Neu5Ac(a2-3)Gal(b1-4)GlcNAc(b1-2)Man(a1-6)]Man(b1-4)GlcNAc(b1-4)GlcNAc
# Procedure, shortened: as §1
# [37] = target: Neu5Ac(a2-3)Gal(b1-4)GlcNAc(b1-2)Man(a1-3)[Neu5Ac(a2-3)Gal(b1-4)GlcNAc(b1-2)Man(a1-6)]Man(b1-4)GlcNAc(b1-4)[Fuc(a1-6)]GlcNAc
# Procedure, shortened: as §1
# [38] = target: Neu5Ac(a2-3)Gal(b1-4)GlcNAc(b1-2)Man(a1-3)[Neu5Ac(a2-6)Gal(b1-4)GlcNAc(b1-2)Man(a1-6)]Man(b1-4)GlcNAc(b1-4)GlcNAc
# Procedure, shortened: as §1
# [39] = target: Neu5Ac(a2-3)Gal(b1-4)GlcNAc(b1-2)[Neu5Ac(a2-3)Gal(b1-4)GlcNAc(b1-4)]Man(a1-3)[GlcNAc(b1-4)][Neu5Ac(a2-3)Gal(b1-4)GlcNAc(b1-2)[Neu5Ac(a2-3)Gal(b1-4)GlcNAc(b1-6)]Man(a1-6)]Man(b1-4)GlcNAc(b1-4)GlcNAc
# Procedure, shortened: as §1
binder,measurement,setting,value
B1,glycan array binding signal (z-score),[1],-0.58
same,glycan array binding signal (z-score),[2],-1.02
same,glycan array binding signal (z-score),[3],-1.01
same,glycan array binding signal (z-score),[4],-0.321
same,glycan array binding signal (z-score),[5],-0.671
same,glycan array binding signal (z-score),Man(a1-3)[Man(a1-6)]Man,0.452
same,glycan array binding signal (z-score),[6],0.018
same,glycan array binding signal (z-score),[7],-0.551
same,glycan array binding signal (z-score),[8],0.905
same,glycan array binding signal (z-score),[9],-0.744
same,glycan array binding signal (z-score),[10],-0.658
same,glycan array binding signal (z-score),Man(a1-6)Man,-0.524
same,glycan array binding signal (z-score),Man(b1-4)GlcNAc,0.033
same,glycan array binding signal (z-score),MurNAc(b1-4)GlcNAc,0.163
same,glycan array binding signal (z-score),Neu5Ac(a2-3)Gal,-0.538
same,glycan array binding signal (z-score),[11],-0.284
same,glycan array binding signal (z-score),[12],-1.25
same,glycan array binding signal (z-score),[13],0.066
same,glycan array binding signal (z-score),[14],0.024
same,glycan array binding signal (z-score),[15],-0.605
same,glycan array binding signal (z-score),[16],-0.28
same,glycan array binding signal (z-score),[17],0.582
same,glycan array binding signal (z-score),[18],-0.206
same,glycan array binding signal (z-score),[19],0.178
same,glycan array binding signal (z-score),[20],-0.307
same,glycan array binding signal (z-score),[21],0.998
same,glycan array binding signal (z-score),[22],-0.089
same,glycan array binding signal (z-score),[23],-0.514
same,glycan array binding signal (z-score),[24],-0.686
same,glycan array binding signal (z-score),[25],0.344
same,glycan array binding signal (z-score),[26],0.949
same,glycan array binding signal (z-score),[27],0.472
same,glycan array binding signal (z-score),[28],-0.172
same,glycan array binding signal (z-score),[29],0.209
same,glycan array binding signal (z-score),[30],0.267
same,glycan array binding signal (z-score),[31],-0.808
same,glycan array binding signal (z-score),[32],-0.65
same,glycan array binding signal (z-score),Neu5Ac(a2-3)Gal(b1-4)Glc,0.045
same,glycan array binding signal (z-score),[33],-0.672
same,glycan array binding signal (z-score),[34],0.139
same,glycan array binding signal (z-score),[35],-0.277
same,glycan array binding signal (z-score),[36],-0.407
same,glycan array binding signal (z-score),[37],-0.756
same,glycan array binding signal (z-score),[38],-0.47
same,glycan array binding signal (z-score),[39],-0.045

# 2 consecutive entries out of the list so far, for reference:
binder,measurement,setting,value
B1,glycan array binding signal (z-score),[10],-0.658
same,glycan array binding signal (z-score),Man(a1-6)Man,-0.524
